# From the supplement of paper PMC10032668
# Chains of the proteins cited; added tags and fusions are not shown.
# AP2A2, O94973, UniProt O94973, whole entry: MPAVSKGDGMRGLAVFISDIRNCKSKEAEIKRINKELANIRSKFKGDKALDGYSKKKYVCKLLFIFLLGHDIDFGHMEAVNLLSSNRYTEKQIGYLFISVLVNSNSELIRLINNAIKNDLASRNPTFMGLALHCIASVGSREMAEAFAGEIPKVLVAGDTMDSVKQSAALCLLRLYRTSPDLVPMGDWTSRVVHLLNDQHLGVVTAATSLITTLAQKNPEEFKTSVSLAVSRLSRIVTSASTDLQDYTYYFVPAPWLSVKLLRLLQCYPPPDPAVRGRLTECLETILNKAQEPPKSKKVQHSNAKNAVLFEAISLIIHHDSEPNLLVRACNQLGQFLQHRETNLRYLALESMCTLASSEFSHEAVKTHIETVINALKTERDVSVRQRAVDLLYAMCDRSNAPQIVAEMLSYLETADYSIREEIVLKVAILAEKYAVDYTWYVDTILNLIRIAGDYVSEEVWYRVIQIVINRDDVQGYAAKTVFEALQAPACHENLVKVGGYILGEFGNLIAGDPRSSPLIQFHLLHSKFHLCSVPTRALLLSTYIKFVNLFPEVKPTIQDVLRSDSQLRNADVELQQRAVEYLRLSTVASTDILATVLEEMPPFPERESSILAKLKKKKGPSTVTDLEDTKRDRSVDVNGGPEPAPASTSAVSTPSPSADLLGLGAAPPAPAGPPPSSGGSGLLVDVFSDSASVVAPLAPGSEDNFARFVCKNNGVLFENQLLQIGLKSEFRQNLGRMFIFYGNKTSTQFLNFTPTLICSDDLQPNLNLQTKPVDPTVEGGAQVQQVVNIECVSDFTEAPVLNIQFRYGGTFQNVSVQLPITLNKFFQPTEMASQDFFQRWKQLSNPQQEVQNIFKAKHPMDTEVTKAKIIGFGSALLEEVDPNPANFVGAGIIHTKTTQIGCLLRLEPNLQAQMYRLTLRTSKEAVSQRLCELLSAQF
# HNRNPU, Q00839, UniProt Q00839, whole entry: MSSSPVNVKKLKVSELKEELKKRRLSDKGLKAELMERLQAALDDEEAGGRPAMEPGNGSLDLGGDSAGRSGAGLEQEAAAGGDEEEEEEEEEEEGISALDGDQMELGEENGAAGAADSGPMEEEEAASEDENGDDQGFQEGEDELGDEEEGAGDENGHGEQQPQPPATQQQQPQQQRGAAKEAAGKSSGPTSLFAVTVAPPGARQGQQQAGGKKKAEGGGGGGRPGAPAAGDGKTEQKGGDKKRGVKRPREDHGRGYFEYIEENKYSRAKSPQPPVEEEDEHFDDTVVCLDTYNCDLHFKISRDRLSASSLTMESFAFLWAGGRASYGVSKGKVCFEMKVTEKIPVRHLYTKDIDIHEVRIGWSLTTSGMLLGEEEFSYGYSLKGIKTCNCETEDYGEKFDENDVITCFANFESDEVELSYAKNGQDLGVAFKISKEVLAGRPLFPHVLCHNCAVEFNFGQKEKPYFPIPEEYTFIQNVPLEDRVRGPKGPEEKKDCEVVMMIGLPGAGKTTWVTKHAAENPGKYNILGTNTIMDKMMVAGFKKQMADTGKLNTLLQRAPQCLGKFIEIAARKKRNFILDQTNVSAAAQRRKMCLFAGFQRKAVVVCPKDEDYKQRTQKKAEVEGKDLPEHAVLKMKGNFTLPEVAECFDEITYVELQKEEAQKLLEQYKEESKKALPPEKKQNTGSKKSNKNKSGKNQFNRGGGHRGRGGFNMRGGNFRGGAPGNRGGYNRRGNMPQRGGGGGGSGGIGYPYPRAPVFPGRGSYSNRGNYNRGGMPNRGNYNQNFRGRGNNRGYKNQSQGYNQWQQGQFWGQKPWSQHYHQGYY
# KHDRBS1, Q07666, UniProt Q07666, whole entry: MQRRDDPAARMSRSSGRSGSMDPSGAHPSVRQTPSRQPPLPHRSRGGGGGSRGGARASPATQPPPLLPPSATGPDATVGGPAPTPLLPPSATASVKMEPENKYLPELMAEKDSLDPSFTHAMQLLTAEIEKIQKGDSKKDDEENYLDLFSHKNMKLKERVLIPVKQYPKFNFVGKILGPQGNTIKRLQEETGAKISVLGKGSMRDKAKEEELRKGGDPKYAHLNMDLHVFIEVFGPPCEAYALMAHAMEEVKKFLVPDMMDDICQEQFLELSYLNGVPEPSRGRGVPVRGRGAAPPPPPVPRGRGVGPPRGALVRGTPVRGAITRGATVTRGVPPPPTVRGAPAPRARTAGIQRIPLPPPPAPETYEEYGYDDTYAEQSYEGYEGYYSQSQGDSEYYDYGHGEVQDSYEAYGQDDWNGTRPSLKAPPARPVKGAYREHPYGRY
# ± gives the standard deviation of the averaged measurements. This is one part of the list. Only hits are listed; about a third recur on repeated control peptides.
# Assays:
# Assay in all cases: PRISMA enrichment of interactor (LFQ) in peptide spot vs all other peptide spots (log2 fold change); higher = stronger / more specific binding of the interactor to the peptide
# ALKBH2, Q6NS38 = target: ALKBH2, Q6NS38
# Protocol: (§1)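 PRISMA: 221 full-length sORF-encoded peptides (3-15 aa), plus SOS1/GLUT1 control peptides, were spot-synthesized on cellulose membranes in triplicate. Membranes were incubated with HEK293T lysate, and bound proteins were identified by LC-MS/MS with LFQ. Enrichment is the log2 fold change versus all other peptide spots; only significant interactors are listed (cutoff c=6, x0=2.8).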
# ALYREF, Q86V81 = target: ALYREF, Q86V81
# Protocol: as §1
# AMMECR1, Q9Y4X0 = target: AMMECR1, Q9Y4X0
# Protocol: as §1
# AMMECR1L, Q6DCA0 = target: AMMECR1L, Q6DCA0
# Protocol: as §1
# AP1B1, Q10567 = target: AP1B1, Q10567
# Protocol: as §1
# AP2A1, O95782 = target: AP2A1, O95782
# Protocol: as §1
# AP2A2, O94973 = target: AP2A2, O94973
# Protocol: as §1
# AP2B1, P63010 = target: AP2B1, P63010
# Protocol: as §1
# AP2M1, Q96CW1 = target: AP2M1, Q96CW1
# Protocol: as §1
# AP2S1, P53680 = target: AP2S1, P53680
# Protocol: as §1
# BCKDK, O14874 = target: BCKDK, O14874
# Protocol: as §1
# C12orf65, Q9H3J6 = target: C12orf65, Q9H3J6
# Protocol: as §1
# C19orf53, Q9UNZ5 = target: C19orf53, Q9UNZ5
# Protocol: as §1
# C8orf33, Q9H7E9 = target: C8orf33, Q9H7E9
# Protocol: as §1
# CC2D1A, Q6P1N0 = target: CC2D1A, Q6P1N0
# Protocol: as §1
# CCDC137, Q6PK04 = target: CCDC137, Q6PK04
# Protocol: as §1
# CCDC59, Q9P031 = target: CCDC59, Q9P031
# Protocol: as §1
# CCNL1, Q9UK58 = target: CCNL1, Q9UK58
# Protocol: as §1
# CHTOP, Q9Y3Y2 = target: CHTOP, Q9Y3Y2
# Protocol: as §1
# CSNK1A1, P48729 = target: CSNK1A1, P48729
# Protocol: as §1
# CSNK1E, P49674 = target: CSNK1E, P49674
# Protocol: as §1
# CSRP2, Q16527 = target: CSRP2, Q16527
# Protocol: as §1
# CXorf56, Q9H5V9 = target: CXorf56, Q9H5V9
# Protocol: as §1
# DDX18, Q9NVP1 = target: DDX18, Q9NVP1
# Protocol: as §1
# DDX47, Q9H0S4 = target: DDX47, Q9H0S4
# Protocol: as §1
# DDX49, Q9Y6V7 = target: DDX49, Q9Y6V7
# Protocol: as §1
# DECR2, Q9NUI1 = target: DECR2, Q9NUI1
# Protocol: as §1
# DERPC, P0CG12 = target: DERPC, P0CG12
# Protocol: as §1
# EEFSEC, P57772 = target: EEFSEC, P57772
# Protocol: as §1
# EGLN1, Q9GZT9 = target: EGLN1, Q9GZT9
# Protocol: as §1
# EHHADH, Q08426 = target: EHHADH, Q08426
# Protocol: as §1
# EMG1, Q92979 = target: EMG1, Q92979
# Protocol: as §1
# EWSR1, Q01844 = target: EWSR1, Q01844
# Protocol: as §1
# FBL, P22087 = target: FBL, P22087
# Protocol: as §1
# FTSJ3, Q8IY81 = target: FTSJ3, Q8IY81
# Protocol: as §1
# FUS, P35637 = target: FUS, P35637
# Protocol: as §1
# GABARAPL2, P60520 = target: GABARAPL2, P60520
# Protocol: as §1
# GAR1, Q9NY12 = target: GAR1, Q9NY12
# Protocol: as §1
# GSK3B, P49841 = target: GSK3B, P49841
# Protocol: as §1
# GTPBP1, O00178 = target: GTPBP1, O00178
# Protocol: as §1
# H1FX, Q92522 = target: H1FX, Q92522
# Protocol: as §1
# HMGB2, P26583 = target: HMGB2, P26583
# Protocol: as §1
# HNRNPU, Q00839 = target: HNRNPU, Q00839
# Protocol: as §1
# HP1BP3, Q5SSJ5 = target: HP1BP3, Q5SSJ5
# Protocol: as §1
# IBA57, Q5T440 = target: IBA57, Q5T440
# Protocol: as §1
# ISG20L2, Q9H9L3 = target: ISG20L2, Q9H9L3
# Protocol: as §1
# KHDRBS1, Q07666 = target: KHDRBS1, Q07666
# Protocol: as §1
# KIF4A, O95239 = target: KIF4A, O95239
# Protocol: as §1
# KIFC1, Q9BW19 = target: KIFC1, Q9BW19
# Protocol: as §1
# MAP4, P27816 = target: MAP4, P27816
# Protocol: as §1
binder,measurement,setting,value
MAEAGDFW [INSIG2],PRISMA enrichment of interactor (log2),"ALKBH2, Q6NS38",4.97
same,PRISMA enrichment of interactor (log2),"ALYREF, Q86V81",6.01 ± 0.77
same,PRISMA enrichment of interactor (log2),"AMMECR1, Q9Y4X0",4.67
same,PRISMA enrichment of interactor (log2),"AMMECR1L, Q6DCA0",5.23
same,PRISMA enrichment of interactor (log2),"AP1B1, Q10567",4.11
same,PRISMA enrichment of interactor (log2),"AP2A1, O95782",8.35
same,PRISMA enrichment of interactor (log2),"AP2A2, O94973",7.43
same,PRISMA enrichment of interactor (log2),"AP2B1, P63010",7.7
same,PRISMA enrichment of interactor (log2),"AP2M1, Q96CW1",7.35
same,PRISMA enrichment of interactor (log2),"AP2S1, P53680",5.49
same,PRISMA enrichment of interactor (log2),"BCKDK, O14874",7.62
same,PRISMA enrichment of interactor (log2),"C12orf65, Q9H3J6",5.03
same,PRISMA enrichment of interactor (log2),"C19orf53, Q9UNZ5",8.3
same,PRISMA enrichment of interactor (log2),"C8orf33, Q9H7E9",4.95
same,PRISMA enrichment of interactor (log2),"CC2D1A, Q6P1N0",8.34
same,PRISMA enrichment of interactor (log2),"CCDC137, Q6PK04",8.12
same,PRISMA enrichment of interactor (log2),"CCDC59, Q9P031",6.06
same,PRISMA enrichment of interactor (log2),"CCNL1, Q9UK58",4.47
same,PRISMA enrichment of interactor (log2),"CHTOP, Q9Y3Y2",6.61
same,PRISMA enrichment of interactor (log2),"CSNK1A1, P48729",8.79
same,PRISMA enrichment of interactor (log2),"CSNK1E, P49674",8.29
same,PRISMA enrichment of interactor (log2),"CSRP2, Q16527",5.53
same,PRISMA enrichment of interactor (log2),"CXorf56, Q9H5V9",6.71
same,PRISMA enrichment of interactor (log2),"DDX18, Q9NVP1",5.42
same,PRISMA enrichment of interactor (log2),"DDX47, Q9H0S4",5.31
same,PRISMA enrichment of interactor (log2),"DDX49, Q9Y6V7",5.33
same,PRISMA enrichment of interactor (log2),"DECR2, Q9NUI1",6.81
same,PRISMA enrichment of interactor (log2),"DERPC, P0CG12",5.93
same,PRISMA enrichment of interactor (log2),"EEFSEC, P57772",5.61
same,PRISMA enrichment of interactor (log2),"EGLN1, Q9GZT9",3.97
same,PRISMA enrichment of interactor (log2),"EHHADH, Q08426",7.65
same,PRISMA enrichment of interactor (log2),"EMG1, Q92979",7.9
same,PRISMA enrichment of interactor (log2),"EWSR1, Q01844",5.88
same,PRISMA enrichment of interactor (log2),"FBL, P22087",6.53
same,PRISMA enrichment of interactor (log2),"FTSJ3, Q8IY81",5.04
same,PRISMA enrichment of interactor (log2),"FUS, P35637",5.87
same,PRISMA enrichment of interactor (log2),"GABARAPL2, P60520",5.02
same,PRISMA enrichment of interactor (log2),"GAR1, Q9NY12",5.78
same,PRISMA enrichment of interactor (log2),"GSK3B, P49841",5.45
same,PRISMA enrichment of interactor (log2),"GTPBP1, O00178",5.68
same,PRISMA enrichment of interactor (log2),"H1FX, Q92522",5.24
same,PRISMA enrichment of interactor (log2),"HMGB2, P26583",4.51
same,PRISMA enrichment of interactor (log2),"HNRNPU, Q00839",5.05
same,PRISMA enrichment of interactor (log2),"HP1BP3, Q5SSJ5",6.06
same,PRISMA enrichment of interactor (log2),"IBA57, Q5T440",6.77
same,PRISMA enrichment of interactor (log2),"ISG20L2, Q9H9L3",5.3
same,PRISMA enrichment of interactor (log2),"KHDRBS1, Q07666",6.5
same,PRISMA enrichment of interactor (log2),"KIF4A, O95239",5.22
same,PRISMA enrichment of interactor (log2),"KIFC1, Q9BW19",6.03
same,PRISMA enrichment of interactor (log2),"MAP4, P27816",6.38

# Laid out differently: results already given
binder | measurement | setting | value
MAEAGDFW [INSIG2] | PRISMA enrichment of interactor (log2) | C12orf65, Q9H3J6 | 5.03
same | PRISMA enrichment of interactor (log2) | C19orf53, Q9UNZ5 | 8.3
same | PRISMA enrichment of interactor (log2) | C8orf33, Q9H7E9 | 4.95
same | PRISMA enrichment of interactor (log2) | CC2D1A, Q6P1N0 | 8.34
